Test [1] concerns the target T1, tubulin polymerization-promoting protein family member 3 (TPPP3), FLAG-tagged (UniProt Q9BW30).
T1 sequence: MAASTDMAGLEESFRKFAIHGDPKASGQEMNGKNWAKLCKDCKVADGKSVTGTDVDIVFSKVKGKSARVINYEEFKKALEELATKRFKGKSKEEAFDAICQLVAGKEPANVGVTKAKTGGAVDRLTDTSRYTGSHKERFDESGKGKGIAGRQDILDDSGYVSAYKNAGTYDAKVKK
Nature of the test: co-IP; lysates of HUVECs transfected with TPPP3-FLAG or VDAC1-HA, IP with antibodies to FLAG or HA (the methods say TPPP3 or VDAC1 antibody) and protein A/G agarose beads overnight at 4°C; Western blot for TPPP3 or VDAC1; irrelevant IgG as control. For orientation: In western blotting, separated proteins are transferred to a membrane and probed.

Chains of the proteins cited; added tags and fusions are not shown.
UniProt P21796: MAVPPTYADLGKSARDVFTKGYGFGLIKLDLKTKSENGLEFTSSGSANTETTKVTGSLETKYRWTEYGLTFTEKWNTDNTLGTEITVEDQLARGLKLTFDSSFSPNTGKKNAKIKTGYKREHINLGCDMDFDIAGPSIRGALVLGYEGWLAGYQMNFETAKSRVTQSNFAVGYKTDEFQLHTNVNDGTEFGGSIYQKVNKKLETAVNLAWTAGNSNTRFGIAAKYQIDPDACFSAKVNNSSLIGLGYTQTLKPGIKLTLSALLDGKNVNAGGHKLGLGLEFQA

For test [2], the target named is voltage-dependent anion channel 1 (VDAC1), HA-tagged (UniProt P21796). The test is described as above.

These are yes or no findings as the source states them, for the method shown. Binding seen in cells or lysates may run through a third protein. Some entries that bind do so weakly or less than the wild type. Tags and fused reporters may be left off the sequences shown.

For the molecule “voltage-dependent anion channel 1 (VDAC1), endogenous (from UniProt P21796 1-283)”, in test [1], the binding entry was “binds”.

B1: tubulin polymerization-promoting protein family member 3 (TPPP3) in HUVECs transfected with VDAC1-HA (protein, UniProt Q9BW30 1-176)
chain: T1 sequence
On to B1, for which the binding entry in test [2] is reported as “binds”.

The values are drawn from paper PMC7556057.
